A short description of this data set: general procedure: Boc solid-phase peptide synthesis; benzhydrylamine (BHA) resin; Boc-Pro-Merrifield resin; DCC/HBT; DCC/DMAP for Pmp(MeBzl). The note with it: whole synthesis, scale 0.5 mmol, one disulfide bridge, sequence written open.

This is an account of results in EP0346068A2 (SMITHKLINE BECKMAN CORPORATION, priority 1988, dated 1989).

On to “Pmp(MeBzl)-D-Tyr(Et)-Phe-Val-Asn-D-Cys(MeBzl)-MeArg(Tos)-Arg(Tos)-BHA”, for which the crude mass was 137 mg.
